Some of the results follow.
biological target: OsWRKY34 (Oryza sativa, UniProt Q0JBA9 1-250); test: protein-binding microarray (RPBM); PBS, 2% BSA, 51.3 ng/ul salmon testes DNA, 50 uM zinc acetate, 200 nM TF, 25 C, 1 h; high values mean tight binding; conditions: protein: recombinant; tags: N-terminal polyhistidine and DsRed monomer fusion (pET32a); label: CyDye5-dUTP incorporated in the synthesized complementary strand; 3' TTTTT single-stranded linker to array surface; dsDNA, one strand shown
How it was run: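 Per-feature fluorescence intensity (arbitrary units), read on an Axon 4000B scanner, is the binding signal. Transcription factors carrying an N-terminal polyhistidine tag and DsRed fusion were expressed in E. coli BL21-CodonPlus and purified on Ni–NTA. A custom Agilent array, made double-stranded by primer extension with Cy5-dUTP and blocked with 2% BSA, was incubated with 200 nM protein in PBS, 2% BSA, salmon testes DNA and 50 µM zinc acetate at 25 °C for 1 h and then washed.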

Sequences of proteins named here, by UniProt entry; tags and fusion partners are left off.
UniProt Q0JBA9, entry or part of it: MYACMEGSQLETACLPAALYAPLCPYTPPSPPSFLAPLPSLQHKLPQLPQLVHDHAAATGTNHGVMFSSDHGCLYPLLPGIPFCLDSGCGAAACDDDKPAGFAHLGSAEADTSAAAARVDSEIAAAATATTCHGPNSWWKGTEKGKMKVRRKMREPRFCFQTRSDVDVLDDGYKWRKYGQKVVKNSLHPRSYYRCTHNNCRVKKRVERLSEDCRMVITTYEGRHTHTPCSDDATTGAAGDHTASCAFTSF

Row | Sequence | binding signal
1 | TCCCGTACCCCTCCCTCCAGCCCACCAACGCCCTCGAGAACGGAGTCACCTAGTGCAG | 8290 fluorescence intensity (a.u.)
2 | CCACTATTCTTTCCAGTTTCCACACACCTTGCTCCATCCACGGAGTCACCTAGTGCAG | 8150 fluorescence intensity (a.u.)
3 | TCTGACTTTTCTTTTTTTGTTTTCATGTTTTTTCACCCTTCGGAGTCACCTAGTGCAG | 12700 fluorescence intensity (a.u.)
4 | TGCTGTTATTTTCGGATGGATTTGAGTTTTATGAAACTCACGGAGTCACCTAGTGCAG | 8690 fluorescence intensity (a.u.)
5 | TTGGTGCTGTTGGTGCGTGGGTGGTGGTATAATTTTCTTTCGGAGTCACCTAGTGCAG | 11900 fluorescence intensity (a.u.)
6 | CCACTTGGATGTAATTGTCTGGGTTTTCTCTCAATTTATACGGAGTCACCTAGTGCAG | 8920 fluorescence intensity (a.u.)
7 | ATTTTTTCCTCTAATTAAGTCATATCACATCAATTGTTTTCGGAGTCACCTAGTGCAG | 10200 fluorescence intensity (a.u.)
8 | TGGAGGGTGTCGATATGGTTGGTAGTTGCTTGGAGGACCACGGAGTCACCTAGTGCAG | 8100 fluorescence intensity (a.u.)
9 | ATAATGGGAAATGGAGGGTGGGATTGGGATTAGAAAATGACGGAGTCACCTAGTGCAG | 9470 fluorescence intensity (a.u.)
10 | GCTGGGGAAGTGAGGATTGATCGATTGGGGATTGGGGATTCGGAGTCACCTAGTGCAG | 16000 fluorescence intensity (a.u.)
11 | CCGCCGCGGCCGATCTCTCTAGGGCTTCCAACCTCGCCGGCGGAGTCACCTAGTGCAG | 8300 fluorescence intensity (a.u.)
12 | AAACCTCTCTTCTCTCTCTCCACCGCCGCCGCCGGTCTGCCGGAGTCACCTAGTGCAG | 8770 fluorescence intensity (a.u.)
13 | CTACCTCTATATTTTAATTTTAATGTATGACGTCGTTGACCGGAGTCACCTAGTGCAG | 11100 fluorescence intensity (a.u.)
14 | TACGCCTCCGCTGTCACAAGCGTATTACTATCTATTACGCCGGAGTCACCTAGTGCAG | 9090 fluorescence intensity (a.u.)
15 | CGACTTTCTGCAAGCGATGGTTGACTTGTACATAGTAATGCGGAGTCACCTAGTGCAG | 8960 fluorescence intensity (a.u.)
16 | CTATCGATCTCTCTCTCTCCTCTTCGGTTCCAGCTCTTCTCGGAGTCACCTAGTGCAG | 9500 fluorescence intensity (a.u.)
17 | GGTGGTGGTGGCGCGGCCGCTCCAACAATCGCGAGGTGAGCGGAGTCACCTAGTGCAG | 8650 fluorescence intensity (a.u.)
18 | TGGTATGAATGGATAATTTGTTTCTGTCTTATGTGTTGCTCGGAGTCACCTAGTGCAG | 9810 fluorescence intensity (a.u.)
19 | GAGGAGTGGGAGGAAAATGAGTGGTGGGGAAAGGATAGGGCGGAGTCACCTAGTGCAG | 8630 fluorescence intensity (a.u.)
20 | GGTGGGCGCATCGCGTTTTTGCGGTTTTTGCTTCTCTTCTCGGAGTCACCTAGTGCAG | 13000 fluorescence intensity (a.u.)
21 | GTGCCTGTTTGCTTCAGTGATGCTGGTGGTGGTTGCCTAACGGAGTCACCTAGTGCAG | 9460 fluorescence intensity (a.u.)
22 | TTCATTGCTGTCATTTTTCCGTCGAGTTCCATCTCTTGATCGGAGTCACCTAGTGCAG | 11200 fluorescence intensity (a.u.)
23 | ACACCTATAGACCCAGACTGCCAAACCCAGTCTTTTGTATCGGAGTCACCTAGTGCAG | 8300 fluorescence intensity (a.u.)
24 | CTCCCAGACCCCTTTCTCTTTAGGTGTGCACATTCTGTCCCGGAGTCACCTAGTGCAG | 8600 fluorescence intensity (a.u.)
25 | CTAGCTACCCTTCGTGCCCAACAGCCCATACCTTACCATGCGGAGTCACCTAGTGCAG | 8560 fluorescence intensity (a.u.)
26 | TTAGGGGTGGAGATTTCTGGTTTTGTGGTTAAGCAACCTTCGGAGTCACCTAGTGCAG | 14700 fluorescence intensity (a.u.)
27 | CTTAGTGGTTTTTTTTTCTCACATGGCACAAATCTCAAGACGGAGTCACCTAGTGCAG | 9290 fluorescence intensity (a.u.)

Row | Sequence | binding signal
28 | TATTATAATTTATTTTGTTGTAAGTTGTTTTATCACTTAACGGAGTCACCTAGTGCAG | 10400 fluorescence intensity (a.u.)
29 | AATCTCTATCGATCTGTTTGTTTACATGTTCAGTTAAAGGCGGAGTCACCTAGTGCAG | 9240 fluorescence intensity (a.u.)
30 | TTAATCTCTCGCCGTATCCATCGCCGGAGCGCAGAACGACCGGAGTCACCTAGTGCAG | 8830 fluorescence intensity (a.u.)
31 | TTCGTCTTCCTCAAGCCATGGCACGTGATGCTGATCCATCCGGAGTCACCTAGTGCAG | 8820 fluorescence intensity (a.u.)
32 | TCAGGTGGAGCTTGCTTGTTTTGTTTACGTCCATCCTTGCCGGAGTCACCTAGTGCAG | 8350 fluorescence intensity (a.u.)
33 | ACCATAATCTCTAGCCTGCTTTTTGATTGCCAATAAGGTTCGGAGTCACCTAGTGCAG | 8380 fluorescence intensity (a.u.)
34 | GCCCGGGCTCCAGCTAGATCCGACCACTCCCCTTTTTACGCGGAGTCACCTAGTGCAG | 8080 fluorescence intensity (a.u.)
35 | CAACTCTCCCAACCCCTCGCGTTGTGCGTTTGCATACGTCCGGAGTCACCTAGTGCAG | 8280 fluorescence intensity (a.u.)
36 | GGATTTTTTTTTAGACTTGTGTACTTTTTTCCTTCTAAATCGGAGTCACCTAGTGCAG | 10500 fluorescence intensity (a.u.)
37 | TGTTCCATTCTGGCTTGTAGGAGTGGTGGGGAGTTTGATCCGGAGTCACCTAGTGCAG | 8660 fluorescence intensity (a.u.)
38 | GAGCTGGGATGCATGGGAACTAACCCGCCAATCTACTTACCGGAGTCACCTAGTGCAG | 8370 fluorescence intensity (a.u.)
39 | TTCATTCAACGTACACTTCAACCATCTATATTTCTTTTAACGGAGTCACCTAGTGCAG | 8220 fluorescence intensity (a.u.)
40 | TACAAACGCAGACGCTCATAACGCGCGCACGCTCACCCCTCGGAGTCACCTAGTGCAG | 8180 fluorescence intensity (a.u.)
41 | ACTACCACATGATCCCAGGTCATTTTCCGTTTTCGTGTCACGGAGTCACCTAGTGCAG | 11300 fluorescence intensity (a.u.)
42 | TATATTTAGTACTTTATGCAAGTGTTTAAACGTTTCATGTCGGAGTCACCTAGTGCAG | 9060 fluorescence intensity (a.u.)
43 | TTTTTTTTGTCGTGGTTGAGATGATGCATGCAGTTCATTTCGGAGTCACCTAGTGCAG | 8430 fluorescence intensity (a.u.)
44 | CGTCTCGTCGTTCAAATCGTCCGCACCAAAAACCCACACCCGGAGTCACCTAGTGCAG | 9560 fluorescence intensity (a.u.)
45 | TCATTTTATTCTTTAATTTGTTGTTGGATATTTTTTAAATCGGAGTCACCTAGTGCAG | 8060 fluorescence intensity (a.u.)
46 | AATTCCCAAAATATACAGTTTTTGTTATTCAGATGTTTACCGGAGTCACCTAGTGCAG | 8130 fluorescence intensity (a.u.)
47 | CCCTCCAACCAATCAAACGGGCCGTCTGCTCTTTTCTCACCGGAGTCACCTAGTGCAG | 8680 fluorescence intensity (a.u.)
48 | CCTGTGGTCCGCCCATCCACCCACCCGCGCACCCCGCCGGCGGAGTCACCTAGTGCAG | 10500 fluorescence intensity (a.u.)
49 | CGATGGGTTGGTCGGGAGGTAGAGACTTTTATTACGCCTTCGGAGTCACCTAGTGCAG | 8650 fluorescence intensity (a.u.)
50 | AACACTTGCACGCTCAATCGCTTCCCGCACCCAAAACCACCGGAGTCACCTAGTGCAG | 8080 fluorescence intensity (a.u.)
51 | ATAGAGCAGGGTTTTGGAGAGGACAGCATCAGGACACATTCGGAGTCACCTAGTGCAG | 8890 fluorescence intensity (a.u.)
52 | TTTGTCTTCTTACCTGCCAAGTCCTTGTCACTGTTGTAGCCGGAGTCACCTAGTGCAG | 8200 fluorescence intensity (a.u.)
53 | ATGACAAGTTGATTTGGTGTACTTTTTCCTCGCAACTAAACGGAGTCACCTAGTGCAG | 8750 fluorescence intensity (a.u.)
54 | CGCCGCGTCCGCTTCGACTCCCGCCGCCAGGTTCTCTCTCCGGAGTCACCTAGTGCAG | 10300 fluorescence intensity (a.u.)

A different layout for some results above:

| Row | Sequence | binding signal |
| --- | --- | --- |
| 37 | TGTTCCATTCTGGCTTGTAGGAGTGGTGGGGAGTTTGATCCGGAGTCACCTAGTGCAG | 8660 fluorescence intensity (a.u.) |
| 38 | GAGCTGGGATGCATGGGAACTAACCCGCCAATCTACTTACCGGAGTCACCTAGTGCAG | 8370 fluorescence intensity (a.u.) |
| 39 | TTCATTCAACGTACACTTCAACCATCTATATTTCTTTTAACGGAGTCACCTAGTGCAG | 8220 fluorescence intensity (a.u.) |
| 40 | TACAAACGCAGACGCTCATAACGCGCGCACGCTCACCCCTCGGAGTCACCTAGTGCAG | 8180 fluorescence intensity (a.u.) |
| 41 | ACTACCACATGATCCCAGGTCATTTTCCGTTTTCGTGTCACGGAGTCACCTAGTGCAG | 11300 fluorescence intensity (a.u.) |
| 42 | TATATTTAGTACTTTATGCAAGTGTTTAAACGTTTCATGTCGGAGTCACCTAGTGCAG | 9060 fluorescence intensity (a.u.) |
| 43 | TTTTTTTTGTCGTGGTTGAGATGATGCATGCAGTTCATTTCGGAGTCACCTAGTGCAG | 8430 fluorescence intensity (a.u.) |
| 44 | CGTCTCGTCGTTCAAATCGTCCGCACCAAAAACCCACACCCGGAGTCACCTAGTGCAG | 9560 fluorescence intensity (a.u.) |
| 45 | TCATTTTATTCTTTAATTTGTTGTTGGATATTTTTTAAATCGGAGTCACCTAGTGCAG | 8060 fluorescence intensity (a.u.) |
| 46 | AATTCCCAAAATATACAGTTTTTGTTATTCAGATGTTTACCGGAGTCACCTAGTGCAG | 8130 fluorescence intensity (a.u.) |
| 47 | CCCTCCAACCAATCAAACGGGCCGTCTGCTCTTTTCTCACCGGAGTCACCTAGTGCAG | 8680 fluorescence intensity (a.u.) |
| 48 | CCTGTGGTCCGCCCATCCACCCACCCGCGCACCCCGCCGGCGGAGTCACCTAGTGCAG | 10500 fluorescence intensity (a.u.) |
| 49 | CGATGGGTTGGTCGGGAGGTAGAGACTTTTATTACGCCTTCGGAGTCACCTAGTGCAG | 8650 fluorescence intensity (a.u.) |
| 50 | AACACTTGCACGCTCAATCGCTTCCCGCACCCAAAACCACCGGAGTCACCTAGTGCAG | 8080 fluorescence intensity (a.u.) |
| 51 | ATAGAGCAGGGTTTTGGAGAGGACAGCATCAGGACACATTCGGAGTCACCTAGTGCAG | 8890 fluorescence intensity (a.u.) |
| 52 | TTTGTCTTCTTACCTGCCAAGTCCTTGTCACTGTTGTAGCCGGAGTCACCTAGTGCAG | 8200 fluorescence intensity (a.u.) |
| 53 | ATGACAAGTTGATTTGGTGTACTTTTTCCTCGCAACTAAACGGAGTCACCTAGTGCAG | 8750 fluorescence intensity (a.u.) |

Source: PMC7819943, “Rice protein-binding microarrays: a tool to detect cis-acting elements near promoter regions in rice”
